According to patent US20110015065A1 (priority 2008, published 2011):
Some results were stated once for a whole list of compounds, not compound by compound.

Test system: Phytophthora infestans
Assay type: cell-based
Settings: 31 ppm active compound; relative to compound-free control (=100%); day 7 after inoculation

## COc1cc(CNS(=O)(=O)c2ccc(-c3ccc(C(F)(F)F)cc3C(F)(F)F)cc2)sn1 [I-2]
  growth of the pathogen: at most 15%

## Cn1nccc1CNS(=O)(=O)c1ccc(-c2ccc(Cl)cc2Cl)cc1 [I-46]
  growth of the pathogen: at most 15%
